Values of other authors in patent EP0266640A2, “A pharmaceutical compound containing nifedipine” (Euro-Celtique S.A., priority 1986, dated 1988).

Details: cited from earlier work

For `COC(=O)C1=C(C)NC(C)=C(C(=O)OC)C1c1ccccc1[N+](=O)[O-]` [Nifedipine, 1,4-dihydro-2,6-dimethyl-4-(2-nitrophenyl)-3,5-pyridine carboxylic acid dimethyl ester], the water solubility is listed as “approx. 6 mg/l”.
